# From the supplement of paper PMC6411743
# Sequences of proteins named here, by UniProt entry; tags and fusion partners are left off. A change or cut given only in a name is not applied to a line headed by its entry.
# UniProt Q9H7P6: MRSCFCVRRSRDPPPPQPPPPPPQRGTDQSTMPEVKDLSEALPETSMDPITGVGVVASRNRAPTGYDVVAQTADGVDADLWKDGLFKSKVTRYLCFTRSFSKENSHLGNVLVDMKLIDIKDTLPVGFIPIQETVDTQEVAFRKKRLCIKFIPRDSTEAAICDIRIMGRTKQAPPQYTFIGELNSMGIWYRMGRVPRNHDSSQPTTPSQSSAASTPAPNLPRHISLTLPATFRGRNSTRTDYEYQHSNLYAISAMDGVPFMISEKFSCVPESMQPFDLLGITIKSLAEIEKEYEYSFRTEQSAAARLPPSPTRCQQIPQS
# UniProt Q9HCE9: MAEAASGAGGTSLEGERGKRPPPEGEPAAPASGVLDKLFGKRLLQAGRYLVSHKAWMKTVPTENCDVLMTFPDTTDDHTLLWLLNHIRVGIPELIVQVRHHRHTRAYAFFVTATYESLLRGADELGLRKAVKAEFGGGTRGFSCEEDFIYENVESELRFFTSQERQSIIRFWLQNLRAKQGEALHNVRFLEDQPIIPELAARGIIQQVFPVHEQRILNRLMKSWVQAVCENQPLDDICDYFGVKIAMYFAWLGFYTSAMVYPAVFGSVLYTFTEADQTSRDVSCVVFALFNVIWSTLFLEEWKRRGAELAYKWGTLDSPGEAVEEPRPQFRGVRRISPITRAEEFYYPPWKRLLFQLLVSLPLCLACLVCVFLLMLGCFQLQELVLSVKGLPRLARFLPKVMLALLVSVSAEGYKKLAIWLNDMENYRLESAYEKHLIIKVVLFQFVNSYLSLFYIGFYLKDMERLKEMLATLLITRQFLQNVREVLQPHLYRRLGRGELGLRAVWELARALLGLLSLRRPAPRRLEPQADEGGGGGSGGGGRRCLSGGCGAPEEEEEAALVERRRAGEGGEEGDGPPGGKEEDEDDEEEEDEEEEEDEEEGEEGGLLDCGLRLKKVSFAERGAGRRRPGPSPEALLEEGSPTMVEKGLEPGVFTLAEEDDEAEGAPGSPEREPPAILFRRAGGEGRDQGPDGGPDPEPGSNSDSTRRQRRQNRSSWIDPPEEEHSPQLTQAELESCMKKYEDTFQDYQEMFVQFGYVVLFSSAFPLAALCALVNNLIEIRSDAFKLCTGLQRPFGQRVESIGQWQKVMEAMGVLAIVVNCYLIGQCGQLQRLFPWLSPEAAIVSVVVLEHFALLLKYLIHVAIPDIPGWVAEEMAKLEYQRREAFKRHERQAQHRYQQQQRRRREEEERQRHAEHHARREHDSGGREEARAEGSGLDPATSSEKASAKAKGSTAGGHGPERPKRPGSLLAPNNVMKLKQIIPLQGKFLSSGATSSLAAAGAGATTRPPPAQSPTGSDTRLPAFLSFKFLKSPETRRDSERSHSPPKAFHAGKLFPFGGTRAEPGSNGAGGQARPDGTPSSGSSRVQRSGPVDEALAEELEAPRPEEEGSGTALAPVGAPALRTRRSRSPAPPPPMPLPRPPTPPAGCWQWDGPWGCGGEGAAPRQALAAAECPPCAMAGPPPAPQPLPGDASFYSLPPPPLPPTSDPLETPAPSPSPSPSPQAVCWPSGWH
# UniProt Q9H9A6: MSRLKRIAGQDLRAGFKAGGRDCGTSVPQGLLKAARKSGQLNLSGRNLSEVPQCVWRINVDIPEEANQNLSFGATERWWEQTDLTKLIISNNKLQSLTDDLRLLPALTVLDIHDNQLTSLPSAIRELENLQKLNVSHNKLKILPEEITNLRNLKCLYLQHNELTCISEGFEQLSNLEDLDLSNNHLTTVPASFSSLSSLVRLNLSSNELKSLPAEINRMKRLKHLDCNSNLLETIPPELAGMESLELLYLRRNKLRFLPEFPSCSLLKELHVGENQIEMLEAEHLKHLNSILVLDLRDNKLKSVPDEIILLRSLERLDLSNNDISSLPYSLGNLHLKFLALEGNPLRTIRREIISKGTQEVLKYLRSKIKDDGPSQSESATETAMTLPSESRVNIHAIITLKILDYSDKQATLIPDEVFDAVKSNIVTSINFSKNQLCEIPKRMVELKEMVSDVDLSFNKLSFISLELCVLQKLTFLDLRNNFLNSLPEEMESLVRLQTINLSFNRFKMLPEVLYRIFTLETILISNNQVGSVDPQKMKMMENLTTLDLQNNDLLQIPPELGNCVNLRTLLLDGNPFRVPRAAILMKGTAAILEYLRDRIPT
# UniProt Q9H7B2: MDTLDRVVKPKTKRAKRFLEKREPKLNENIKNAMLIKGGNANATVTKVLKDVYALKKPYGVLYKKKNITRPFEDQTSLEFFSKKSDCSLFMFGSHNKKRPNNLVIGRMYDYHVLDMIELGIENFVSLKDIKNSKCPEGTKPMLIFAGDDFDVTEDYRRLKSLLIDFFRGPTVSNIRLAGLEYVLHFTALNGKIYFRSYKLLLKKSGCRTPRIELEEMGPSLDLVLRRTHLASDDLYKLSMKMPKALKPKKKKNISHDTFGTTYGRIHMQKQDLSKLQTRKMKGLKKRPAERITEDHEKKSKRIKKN
# UniProt Q9HC52: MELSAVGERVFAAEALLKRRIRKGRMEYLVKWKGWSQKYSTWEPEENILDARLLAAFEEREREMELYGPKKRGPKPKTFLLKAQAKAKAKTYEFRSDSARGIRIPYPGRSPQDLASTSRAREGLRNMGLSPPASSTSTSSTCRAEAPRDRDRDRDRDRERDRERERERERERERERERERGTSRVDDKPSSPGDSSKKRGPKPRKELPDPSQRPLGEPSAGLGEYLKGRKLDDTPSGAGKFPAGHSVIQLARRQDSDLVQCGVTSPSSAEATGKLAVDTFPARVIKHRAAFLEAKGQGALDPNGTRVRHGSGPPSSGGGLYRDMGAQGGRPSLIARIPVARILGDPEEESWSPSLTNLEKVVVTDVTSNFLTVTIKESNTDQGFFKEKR
# UniProt Q9H6R6: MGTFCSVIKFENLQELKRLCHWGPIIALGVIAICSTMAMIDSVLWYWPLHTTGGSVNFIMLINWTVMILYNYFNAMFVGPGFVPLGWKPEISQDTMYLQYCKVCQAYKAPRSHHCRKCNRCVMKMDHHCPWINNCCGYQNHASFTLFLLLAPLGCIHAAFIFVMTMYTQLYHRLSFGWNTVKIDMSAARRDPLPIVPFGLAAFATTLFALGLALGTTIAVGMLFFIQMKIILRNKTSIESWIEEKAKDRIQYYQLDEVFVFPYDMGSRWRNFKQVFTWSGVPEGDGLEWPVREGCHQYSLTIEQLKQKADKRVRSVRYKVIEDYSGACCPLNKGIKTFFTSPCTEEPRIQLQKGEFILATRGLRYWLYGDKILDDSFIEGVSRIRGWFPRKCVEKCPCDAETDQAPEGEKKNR
# UniProt Q9GZT9: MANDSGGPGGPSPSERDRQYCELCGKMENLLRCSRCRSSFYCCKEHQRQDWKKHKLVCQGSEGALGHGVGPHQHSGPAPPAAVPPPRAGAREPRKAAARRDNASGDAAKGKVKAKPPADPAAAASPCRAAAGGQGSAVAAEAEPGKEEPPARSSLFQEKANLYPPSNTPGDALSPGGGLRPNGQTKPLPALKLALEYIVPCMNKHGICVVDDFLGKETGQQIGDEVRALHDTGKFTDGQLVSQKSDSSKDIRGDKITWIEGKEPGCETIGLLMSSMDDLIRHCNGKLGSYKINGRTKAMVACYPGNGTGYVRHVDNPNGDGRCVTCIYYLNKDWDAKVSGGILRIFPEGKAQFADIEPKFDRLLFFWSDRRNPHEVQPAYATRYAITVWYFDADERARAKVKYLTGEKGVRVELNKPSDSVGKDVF
# UniProt Q9C0B0: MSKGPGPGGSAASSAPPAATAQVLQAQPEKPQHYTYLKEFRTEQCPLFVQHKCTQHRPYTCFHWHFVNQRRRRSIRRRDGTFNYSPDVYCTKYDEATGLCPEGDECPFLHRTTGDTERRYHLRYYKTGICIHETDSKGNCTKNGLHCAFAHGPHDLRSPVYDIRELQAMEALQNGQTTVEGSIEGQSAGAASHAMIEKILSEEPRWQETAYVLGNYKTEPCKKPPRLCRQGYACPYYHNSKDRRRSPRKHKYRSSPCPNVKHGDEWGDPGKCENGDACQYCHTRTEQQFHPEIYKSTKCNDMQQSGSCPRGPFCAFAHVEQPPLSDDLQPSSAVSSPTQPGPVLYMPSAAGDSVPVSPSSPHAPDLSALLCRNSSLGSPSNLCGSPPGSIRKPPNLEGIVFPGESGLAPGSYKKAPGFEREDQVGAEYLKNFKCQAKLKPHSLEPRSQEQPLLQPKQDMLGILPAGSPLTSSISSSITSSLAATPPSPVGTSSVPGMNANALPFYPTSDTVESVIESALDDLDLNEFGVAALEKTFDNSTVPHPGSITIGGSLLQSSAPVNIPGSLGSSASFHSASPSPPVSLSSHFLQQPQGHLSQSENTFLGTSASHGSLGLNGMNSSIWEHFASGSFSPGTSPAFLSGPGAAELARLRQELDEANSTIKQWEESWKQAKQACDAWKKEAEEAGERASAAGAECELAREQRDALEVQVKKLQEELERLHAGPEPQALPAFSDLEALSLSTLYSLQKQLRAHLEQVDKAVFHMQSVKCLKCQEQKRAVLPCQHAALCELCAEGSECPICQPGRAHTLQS
# UniProt Q9H1Y0: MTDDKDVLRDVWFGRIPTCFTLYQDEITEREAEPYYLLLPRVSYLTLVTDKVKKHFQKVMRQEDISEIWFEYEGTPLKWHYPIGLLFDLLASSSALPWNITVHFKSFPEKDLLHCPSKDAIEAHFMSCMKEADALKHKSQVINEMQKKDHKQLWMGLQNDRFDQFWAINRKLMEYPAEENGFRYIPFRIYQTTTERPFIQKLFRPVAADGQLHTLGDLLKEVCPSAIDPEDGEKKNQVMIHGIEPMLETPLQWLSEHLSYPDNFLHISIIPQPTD
# UniProt Q9H3R5: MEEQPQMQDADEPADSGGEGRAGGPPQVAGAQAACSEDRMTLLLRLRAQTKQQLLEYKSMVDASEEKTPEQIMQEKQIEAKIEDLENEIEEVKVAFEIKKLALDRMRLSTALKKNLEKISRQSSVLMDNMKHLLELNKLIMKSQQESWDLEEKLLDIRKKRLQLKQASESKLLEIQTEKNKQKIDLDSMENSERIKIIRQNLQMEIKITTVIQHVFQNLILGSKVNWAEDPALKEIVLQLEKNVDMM
# UniProt Q9GZR5: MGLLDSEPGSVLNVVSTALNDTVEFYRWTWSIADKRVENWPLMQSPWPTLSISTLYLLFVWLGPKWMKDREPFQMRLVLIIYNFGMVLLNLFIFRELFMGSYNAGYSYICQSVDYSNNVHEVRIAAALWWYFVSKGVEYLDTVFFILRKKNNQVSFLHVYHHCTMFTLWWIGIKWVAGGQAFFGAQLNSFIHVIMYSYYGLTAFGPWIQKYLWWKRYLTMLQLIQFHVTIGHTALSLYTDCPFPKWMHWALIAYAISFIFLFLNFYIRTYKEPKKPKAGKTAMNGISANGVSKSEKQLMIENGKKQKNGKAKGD
# UniProt Q9H0W9: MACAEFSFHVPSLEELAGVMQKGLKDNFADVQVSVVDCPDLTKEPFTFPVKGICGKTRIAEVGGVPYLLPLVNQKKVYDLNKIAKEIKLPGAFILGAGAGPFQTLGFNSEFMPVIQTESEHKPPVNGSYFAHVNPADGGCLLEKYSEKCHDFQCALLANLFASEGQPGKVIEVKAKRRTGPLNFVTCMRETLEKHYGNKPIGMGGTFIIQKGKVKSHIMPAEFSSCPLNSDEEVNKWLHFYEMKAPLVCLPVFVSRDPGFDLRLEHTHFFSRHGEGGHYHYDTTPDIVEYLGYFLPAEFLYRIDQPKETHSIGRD
# UniProt Q9H2G9: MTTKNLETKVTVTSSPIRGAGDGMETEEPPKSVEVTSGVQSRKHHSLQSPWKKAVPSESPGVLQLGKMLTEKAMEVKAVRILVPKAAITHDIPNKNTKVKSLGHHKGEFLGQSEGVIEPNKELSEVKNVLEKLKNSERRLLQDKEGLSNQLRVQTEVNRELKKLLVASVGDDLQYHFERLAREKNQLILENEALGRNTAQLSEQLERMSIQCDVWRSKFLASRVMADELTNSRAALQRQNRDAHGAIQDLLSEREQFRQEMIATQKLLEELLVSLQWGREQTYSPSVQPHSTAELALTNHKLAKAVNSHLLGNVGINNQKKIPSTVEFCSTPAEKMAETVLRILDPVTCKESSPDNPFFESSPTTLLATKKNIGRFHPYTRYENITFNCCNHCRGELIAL
# UniProt Q9H867: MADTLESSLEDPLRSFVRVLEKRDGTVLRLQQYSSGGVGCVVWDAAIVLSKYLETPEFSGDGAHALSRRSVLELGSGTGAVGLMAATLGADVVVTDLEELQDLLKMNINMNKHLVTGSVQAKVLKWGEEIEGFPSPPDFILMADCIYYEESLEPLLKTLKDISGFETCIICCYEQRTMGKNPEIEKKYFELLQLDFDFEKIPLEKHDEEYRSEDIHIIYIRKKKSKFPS
# UniProt Q9HB20: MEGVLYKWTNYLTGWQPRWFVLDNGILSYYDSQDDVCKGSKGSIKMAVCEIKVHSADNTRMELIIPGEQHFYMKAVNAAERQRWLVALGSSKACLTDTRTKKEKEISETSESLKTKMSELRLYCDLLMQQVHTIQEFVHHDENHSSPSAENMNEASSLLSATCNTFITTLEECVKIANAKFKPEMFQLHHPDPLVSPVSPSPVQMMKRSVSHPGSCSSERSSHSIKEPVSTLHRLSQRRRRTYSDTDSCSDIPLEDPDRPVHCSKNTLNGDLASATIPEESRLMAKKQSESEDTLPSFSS
# ± gives the standard deviation of the averaged measurements. Only a part is listed here, and it is no random draw. Small differences around the control level are noise.
# Compound: Nc1ncnc2c1ncn2[C@@H]1O[C@H](COP(=O)(O)OP(=O)(O)OP(=O)(O)O)[C@@H](O)[C@H]1O [adenosine triphosphate]
# Test: NP40-soluble protein abundance relative to vehicle (solubility fold change) (ratio); higher = more soluble protein in presence of ATP
# Outline: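 Crude Jurkat lysate, prepared by Dounce homogenisation, was exposed to eight concentrations from 0.1 to 10 mM for 10 min at room temperature and then 3 min at 37 °C. Solubilisation used 0.8% NP40 with benzonase for 60 min at 4 °C, followed by ultracentrifugation and TMT labelling of the supernatant for LC-MS/MS. After vsn normalisation of intensities, each value is the fold change against the detergent-processed vehicle within each replicate, across three independent experiments.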
Target,NP40-soluble protein abundance (concentration: 0.1mM),NP40-soluble protein abundance (concentration: 0.5mM)
UniProt Q9H7Z3 and related entries,1.04 ± 0.014,1.04 ± 0.039
UniProt Q9H1K0,0.906 ± 0.065,0.92 ± 0.064
MVB12B (UniProt Q9H7P6),0.994 ± 0.026,0.957 ± 0.064
UniProt Q9H0R4 and related entries,0.986 ± 0.016,1.02 ± 0.033
UniProt Q9HCE9 and related entries,0.94 ± 0.13,0.934 ± 0.14
LRRC40 (UniProt Q9H9A6),0.999 ± 0.012,1 ± 0.034
UniProt Q9H078-2,1.07 ± 0.028,1.11 ± 0.025
UniProt Q9H7B2,1.16 ± 0.094,1.18 ± 0.14
EHD1 (UniProt Q9H4M9),1.03 ± 0.066,1.03 ± 0.058
CBX8 (UniProt Q9HC52),1.02 ± 0.034,1.06 ± 0.05
UniProt Q9H6R6 and related entries,0.939 ± 0.086,1.01 ± 0.12
EGLN1 (UniProt Q9GZT9),1.01 ± 0.05,1.01 ± 0.06
UNK (UniProt Q9C0B0),1.02 ± 0.025,1.05 ± 0.053
ATG5 (UniProt Q9H1Y0),1.01 ± 0.046,1.01 ± 0.044
PDF (UniProt Q9HBH1),0.983 ± 0.015,0.954 ± 0.038
CENPH (UniProt Q9H3R5),0.956 ± 0.12,0.888 ± 0.15
SSU72 (UniProt Q9NP77),1.06 ± 0.033,1.03 ± 0.047
UniProt Q9GZR5,0.977 ± 0.092,1.01 ± 0.032
UniProt Q9H0W9 and related entries,1.03 ± 0.029,1.04 ± 0.063
BLZF1 (UniProt Q9H2G9),1.03 ± 0.1,1.02 ± 0.026
UniProt Q9GZY8-2|Q9GZY8-5,0.998 ± 0.031,0.93 ± 0.11
SDF2L1 (UniProt Q9HCN8),0.987 ± 0.029,0.961 ± 0.047
UniProt Q9NP50,0.9464 ± 0.0032,0.979 ± 0.046
UniProt Q9H867 and related entries,1.02 ± 0.11,0.9597 ± 0.0092
UniProt Q9HAS0 and related entries,1.013 ± 0.0077,1.06 ± 0.037
POFUT1 (UniProt Q9H488),1.02 ± 0.04,0.984 ± 0.012
PLEKHA3 (UniProt Q9HB20),1.05 ± 0.097,1.01 ± 0.04
UniProt Q9C0D5 and related entries,0.996 ± 0.051,0.994 ± 0.056
UniProt Q9C0D2 and related entries,0.969 ± 0.044,1.06 ± 0.047
SCPEP1 (UniProt Q9HB40),0.947 ± 0.028,0.905 ± 0.12

# Reformatted tab-delimited: entries from further up.
Target	NP40-soluble protein abundance (concentration: 0.1mM)	NP40-soluble protein abundance (concentration: 0.5mM)
UniProt Q9HAS0 and related entries	1.013 ± 0.0077	1.06 ± 0.037
POFUT1 (UniProt Q9H488)	1.02 ± 0.04	0.984 ± 0.012
